{"sequences": {"note": "Amino acid sequences for entries named in this document (tags omitted).", "UniProt P27986": "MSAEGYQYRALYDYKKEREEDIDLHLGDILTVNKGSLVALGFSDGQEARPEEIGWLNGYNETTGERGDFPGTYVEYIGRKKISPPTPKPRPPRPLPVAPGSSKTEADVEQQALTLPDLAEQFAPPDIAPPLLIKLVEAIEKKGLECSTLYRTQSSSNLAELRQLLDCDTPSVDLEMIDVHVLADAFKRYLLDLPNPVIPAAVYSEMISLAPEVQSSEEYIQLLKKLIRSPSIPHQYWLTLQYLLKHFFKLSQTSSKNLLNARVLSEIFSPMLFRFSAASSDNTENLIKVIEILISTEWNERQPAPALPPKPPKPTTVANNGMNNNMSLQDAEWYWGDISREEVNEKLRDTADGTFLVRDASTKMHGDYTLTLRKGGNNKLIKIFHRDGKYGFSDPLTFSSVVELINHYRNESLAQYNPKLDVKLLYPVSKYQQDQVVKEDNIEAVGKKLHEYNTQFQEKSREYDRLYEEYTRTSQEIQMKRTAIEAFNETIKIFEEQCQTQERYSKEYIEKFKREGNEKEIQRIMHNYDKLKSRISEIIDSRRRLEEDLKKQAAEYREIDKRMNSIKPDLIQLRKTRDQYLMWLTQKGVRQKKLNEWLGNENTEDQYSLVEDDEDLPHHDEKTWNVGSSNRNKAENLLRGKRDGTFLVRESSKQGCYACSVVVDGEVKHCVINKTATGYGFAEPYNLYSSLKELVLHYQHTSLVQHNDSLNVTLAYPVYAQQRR"}, "source": "paper PMC11900823", "key": {"[1]": {"biological_target": "T1, BRD7 485-651, Flag-GFP-labeled truncation (UniProt Q9NPI1)", "T1 sequence": "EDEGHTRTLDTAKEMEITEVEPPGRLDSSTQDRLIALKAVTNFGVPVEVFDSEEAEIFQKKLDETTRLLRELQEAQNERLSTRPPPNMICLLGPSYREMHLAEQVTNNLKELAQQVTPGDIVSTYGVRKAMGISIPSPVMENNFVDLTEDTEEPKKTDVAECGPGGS", "assay": "co-IP; anti-Flag IP from lysate of 293T cells transfected with BRD7 or its truncations, Western blot"}, "[2]": {"biological_target": "T1, BRD7 485-651, Flag-GFP-labeled truncation", "assay": "co-IP; anti-Flag (DYKDDDDK) IP from total lysate of transfected 5-8F and CNE2 cells, protein A+G agarose, Western blot"}}, "note": "These are yes or no findings as the source states them, for the method shown. Binding seen in cells or lysates may run through a third protein. Some results given as binding are weak or reduced against the parent protein; the word gives no strength. Where a sequence is shown, tags or fusion partners need not be part of it.", "data": [{"substance": "PI3K-p85α (from UniProt P27986 1-724)", "values": [{"measurement": "binding", "setting": "[1]", "value": "binds"}, {"measurement": "binding", "setting": "[2]", "value": "binds"}]}]}
